Out of some 300,000 compounds screened, about 3,700 (1.2%) were called active. Inconclusive means that the source gave no clear call. Such entries were picked first, then a sample of the others. Calls come from the whole dose curve; tested in HEK293 cells. Where the call is inconclusive, the potency comes from a doubtful curve fit.
Assay: qHTS for Inhibitors of binding or entry into cells for Lassa Virus; note: nearly all actives have a fitted effect of over 50% in size
Conditions: Lassa virus pseudotype entry inhibition, cell reporter; series mostly up to 37.9 µM
Potency is the fitted concentration of half-maximal effect.

Structure (SMILES)	Potency
Cc1ccc(S(=O)(=O)N(C)c2ccc(C(=O)Nc3ccc(C)cn3)cc2)cc1	inconclusive: 11.2 µM [inhibitor, partial curve, poor fit]
COc1ccc(C(=O)Nc2nccs2)cc1	inconclusive: 35.5 µM [inhibitor, single point]
CCOC(=O)c1c(NC(=O)c2ccc(S(=O)(=O)N3CCC(C)CC3)cc2)sc2c1CCN(CC)C2	inactive
O=C(COC(=O)/C=C/c1ccccc1)NCCNC(=O)COC(=O)/C=C/c1ccccc1	inconclusive: 3.98 µM [activator, partial curve, poor fit]
COc1ccc(OC)c(C(c2nnnn2CCc2ccccc2)N2CCN(c3ccccc3)CC2)c1 (stereo unspecified)	active: 10 µM
CCN=c1scc(C)n1/N=C/c1cc(Br)c(O)c(Br)c1	inconclusive: 25.1 µM [inhibitor, single point]
O=C(Cn1cnc2ccccc2c1=O)c1ccc(Br)cc1	inconclusive: 2.24 µM [activator, full curve, poor fit]
CCOCCn1c(SCc2c(F)cccc2Cl)nc2c1c(=O)[nH]c(=O)n2C	inconclusive: 1.46 µM [inhibitor, partial curve, poor fit]
Cc1[nH]c(=O)[nH]c(=O)c1S(=O)(=O)N1CCN(c2ccccc2Cl)CC1	inactive
O=C(CN1CCN(C(=O)c2ccco2)CC1)Nc1ccc(F)cc1F	inconclusive: 10 µM [inhibitor, partial curve, poor fit]
CCN(CC)S(=O)(=O)c1ccc(Cl)c(C(=O)Nc2ccc(Cl)cc2[N+](=O)[O-])c1	inconclusive: 35.5 µM [inhibitor, single point]
CCOC(=O)c1cc(-c2ccccc2)n(CCCC(=O)Nc2cccc(C)c2C)c1C	inactive
COc1ccc(S(=O)(=O)NCC(c2ccco2)N2CCN(c3ccccc3)CC2)cc1OC (stereo unspecified)	inactive
Cn1nnnc1SCC(=O)Nc1ccc(N2CCOCC2)cc1	inconclusive: 20.6 µM [activator, single point]
COc1ccc(CCNC(=O)c2n[nH]c3ccccc23)cc1	inconclusive: 5.62 µM [inhibitor, full curve, poor fit]
Cc1ccc(NC(=O)c2c(C)noc2C)cc1S(=O)(=O)N1CCOCC1	inactive
Cc1cccc(Nc2nnc(SCC3CCCCO3)s2)c1 (stereo unspecified)	inconclusive: 14.1 µM [inhibitor, single point]
CCC(C)(C)n1nnnc1C(c1cc2cc(OC)ccc2[nH]c1=O)N1CCc2ccccc21 (stereo unspecified)	inconclusive: 11.2 µM [inhibitor, partial curve]
CN(C)/N=C/c1ccc(P(c2ccc(/C=N/N(C)C)o2)c2ccc(/C=N/N(C)C)o2)o1	inconclusive: 15.8 µM [inhibitor, single point]
COC(=O)c1sc(N2CCN(c3ccc(Cl)cc3)CC2)nc1N	inconclusive: 35.5 µM [inhibitor, single point]
CCN(CC(=O)NCc1ccc(F)cc1)CC(=O)Nc1ccc(S(=O)(=O)N2CCCC2)cc1	inactive
COc1cccc(-c2ccc(NC(=O)C3CCCN(Cc4cnc(C)s4)C3)cc2)c1 (stereo unspecified)	inconclusive: 22.4 µM [inhibitor, partial curve, poor fit]

4 successive records from above, quoted:
Structure (SMILES)	Potency
Cc1cccc(Nc2nnc(SCC3CCCCO3)s2)c1 (stereo unspecified)	inconclusive: 14.1 µM [inhibitor, single point]
CCC(C)(C)n1nnnc1C(c1cc2cc(OC)ccc2[nH]c1=O)N1CCc2ccccc21 (stereo unspecified)	inconclusive: 11.2 µM [inhibitor, partial curve]
CN(C)/N=C/c1ccc(P(c2ccc(/C=N/N(C)C)o2)c2ccc(/C=N/N(C)C)o2)o1	inconclusive: 15.8 µM [inhibitor, single point]
COC(=O)c1sc(N2CCN(c3ccc(Cl)cc3)CC2)nc1N	inconclusive: 35.5 µM [inhibitor, single point]

(listing goes on)

Structure (SMILES)	Potency
COc1cc(-c2nnc3sc(Cc4ccccc4)nn23)cc(OC)c1OC	inactive
O=C(NCCCO)c1ccc2nc(-c3ccco3)c(-c3ccco3)nc2c1	inconclusive: 7.08 µM [activator, partial curve, poor fit]
CCOc1cc(S(=O)(=O)NCc2ccncc2)ccc1Cl	inconclusive: 0.316 µM [inhibitor, full curve, poor fit]
COc1ccc(OCCC(=O)OCC(=O)NC2CCCCC2)cc1	inconclusive: 1.58 µM [inhibitor, partial curve]
CCOC(=O)c1c(C)[nH]c(CCC(=O)NCc2ccc(F)cc2)c1C	inconclusive: 6.31 µM [inhibitor, single point]
CCOc1ccc(C(O)C(CN2CCOCC2)c2ccccc2)cc1 (stereo unspecified)	inconclusive: 6.31 µM [inhibitor, partial curve]
CCC(C)NC(=O)c1ccccc1NC(=O)/C(=C/c1ccc(OC)cc1)c1ccccc1 (stereo unspecified)	inconclusive: 11.2 µM [inhibitor, partial curve, poor fit]
Cc1ccccc1N1C(=O)C2C3C=CC(C2C1=O)N(C)C3=O (stereo unspecified)	inconclusive: 29.1 µM [activator, single point]
O=C(N/N=C/c1c(O)n(-c2ccccc2Cl)c(=O)c2ccccc12)C1COc2ccccc2O1 (stereo unspecified)	inconclusive: 35.5 µM [inhibitor, single point]
CN(C)S(=O)(=O)c1ccc2c(c1)nc(CCC(=O)Nc1ccc3c(c1)OCO3)n2C	inactive
CCOC(=O)c1c(-c2ccc(F)cc2)csc1/N=C/N(C)C	inconclusive: 15.8 µM [inhibitor, single point]
COc1ccc(N=Nc2c(C)[nH][nH]c2=O)cc1	inactive
Cc1ccccc1/C(N)=N/OC(=O)c1cccs1	inactive
CCOc1cc2[nH]c(=O)n(CCCCC(=O)N3CCN(c4cccc(Cl)c4)CC3)c(=O)c2cc1OCC	inconclusive: 0.891 µM [inhibitor, partial curve, poor fit]
Cc1ccc(CN2CCN(Cc3cccc4c3OCO4)CC2CCO)cc1 (stereo unspecified)	inactive
N#Cc1cc([N+](=O)[O-])ccc1NC(=O)COC(=O)CN1C(=O)C2CCCCC2C1=O (stereo unspecified)	inconclusive: 1.12 µM [activator, single point]
CN(C)/C=N/c1c(C#N)cnn1-c1ncnc2sc(-c3ccccc3)cc12	active: 11.2 µM
O=C(Nc1ccc(OC(F)(F)F)cc1)c1ccc2c(c1)no[n+]2[O-]	inconclusive: 35.5 µM [inhibitor, single point]
CCCCCC1CC(=O)NC1(C(=O)OCC)C(=O)OCC (stereo unspecified)	inconclusive: 1.26 µM [inhibitor, single point]
CC(/C=C/c1ccccc1)=N\NC(=O)c1ccc(Br)cc1	inconclusive: 8.91 µM [inhibitor, partial curve, poor fit]
Cc1ccc(S(=O)(=O)N2CCCCC2)cc1NC(=O)CCCOc1ccccc1	inconclusive: 11.2 µM [inhibitor, partial curve, poor fit]
Cc1cc(C)nc(NC(=O)c2ccc(Br)cc2)n1	inactive

Structure (SMILES)	Potency
CCC(CC)C(=O)c1c[nH]c(C(=O)NCC2CCCO2)c1 (stereo unspecified)	active: 7.08 µM
COc1ccc(OCc2nnc(SCC(=O)N3CCCc4ccccc43)n2-c2ccc(C)cc2)cc1	inconclusive: 14.6 µM [inhibitor, single point]
O=C(NCc1ccccc1Cl)C1CCCN(C(=O)Nc2ccc(F)cc2)C1 (stereo unspecified)	inconclusive: 11.2 µM [inhibitor, partial curve, poor fit]
Cc1ccc(CNC(=O)COC(=O)C2CCC2)cc1	inconclusive: 0.631 µM [inhibitor, partial curve, poor fit]
Cc1ccc(NC(=O)/C(C#N)=C/c2ccsc2)c(C)c1	inconclusive: 9.2 µM [activator, partial curve, poor fit]
COc1ccc(C(=O)Oc2cccc(Nc3ncnc4ccccc34)c2)cc1OC	inconclusive: 20 µM [inhibitor, partial curve, poor fit]
Cc1ccc(/C(N)=N/OC(=O)c2ccc(F)cc2)cc1	inconclusive: 14.6 µM [inhibitor, single point]
Nn1c(SCC(=O)Nc2ccc(S(N)(=O)=O)cc2)nnc1-c1ccco1	inactive
CCc1ccc(/C=N/Nc2ncnc3nc[nH]c23)cc1	active: 7.94 µM
COc1cccc(N2CCN(S(=O)(=O)c3cn(C)c(C)n3)CC2)c1	inconclusive: 8.91 µM [activator, partial curve, poor fit]
COc1cc2c(cc1NC(=O)CN1CCN(S(=O)(=O)c3ccc(F)cc3)CC1)oc1ccccc12	inconclusive: 2.51 µM [inhibitor, full curve, poor fit]
COCCCNCCCCOc1ccc(Br)cc1Cl	inconclusive: 16.4 µM [inhibitor, single point]
CC(C)Nc1nc(NC(C)C)nc(N(C)N)n1	inconclusive: 0.0517 µM [inhibitor, full curve, poor fit]
Cc1ccc2nc3c(c(N)c2c1)CCN3c1ccccc1	inconclusive: 0.0073 µM [activator, full curve, poor fit]
Cc1ccc(CCNC(c2ccc(F)cc2)c2nnc(-c3ccccc3Cl)o2)cc1 (stereo unspecified)	inconclusive: 3.16 µM [inhibitor, single point]
C=CCn1c(NCCc2ccccc2)nc2c1c(=O)n(C)c(=O)n2C	inconclusive: 22.4 µM [inhibitor, single point]
CCCN1C(=O)/C(=C\c2ccncc2)SC1=Nc1ccccc1	inconclusive: 29.1 µM [inhibitor, single point]
O=C(O)[C@@H]1CC(O)CN1C(=O)CCc1c[nH]c2ccccc12 (stereo partly specified)	inactive
CS/C(N)=N/C(=S)Nc1cccc(Cl)c1	inconclusive: 3.98 µM [activator, full curve, poor fit]
Cc1ccn2c(C(=O)c3ccc(Cl)cc3)cnc2c1	active: 17.8 µM
COc1ccc(-n2nc3c(N4CCCC(C(=O)NCc5ccc(C)cc5)C4)nnc(C)c3c2C)cc1 (stereo unspecified)	inconclusive: 14.1 µM [inhibitor, partial curve, poor fit]
Cc1sc2ncn(CC(=O)Nc3ccc(F)cc3F)c(=O)c2c1S(=O)(=O)N1CCC(C)CC1	inactive
